Experimental data reported in the M2OR odorant receptor database.
This is a selection; strong and weak results do not stand in their true shares. The calls were merged from several studies; some rest on single wells. The list shows a part of the results. The list shows a part of the results.

By UniProt entry, the sequences of proteins in these tests, tags left out. Where a name states a change or a piece, a line headed by the entry shows the natural chain unless it says otherwise.
UniProt Q96RD3: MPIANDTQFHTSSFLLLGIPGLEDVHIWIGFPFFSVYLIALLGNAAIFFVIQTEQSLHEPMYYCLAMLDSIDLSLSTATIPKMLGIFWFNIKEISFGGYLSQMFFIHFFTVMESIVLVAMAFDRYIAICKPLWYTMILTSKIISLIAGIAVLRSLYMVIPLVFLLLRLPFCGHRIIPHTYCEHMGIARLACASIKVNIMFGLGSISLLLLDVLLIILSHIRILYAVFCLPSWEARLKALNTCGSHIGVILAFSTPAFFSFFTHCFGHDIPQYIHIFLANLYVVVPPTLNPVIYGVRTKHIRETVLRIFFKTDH

What was measured:
Settings in all cases: stereoisomer not certain
OR51I2 (Homo sapiens) = molecular target: T1, OR51I2 (Homo sapiens) (UniProt Q9H344)
T1 sequence (whole entry): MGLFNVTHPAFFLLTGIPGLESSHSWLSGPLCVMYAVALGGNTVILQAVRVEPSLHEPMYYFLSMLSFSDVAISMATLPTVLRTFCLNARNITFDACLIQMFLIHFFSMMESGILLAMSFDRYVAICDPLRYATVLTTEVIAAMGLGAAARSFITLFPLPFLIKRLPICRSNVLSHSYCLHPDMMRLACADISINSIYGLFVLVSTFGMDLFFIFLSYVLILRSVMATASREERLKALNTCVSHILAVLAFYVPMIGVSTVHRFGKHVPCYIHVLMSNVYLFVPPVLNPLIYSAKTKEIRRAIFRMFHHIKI
Outline: (§1)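 Each receptor–molecule pair is labelled responsive or non-responsive (inactive) according to whether the original authors judged the measured signal statistically different from baseline. The data were taken from the main text and supplementary material of published papers and checked for typos and inconsistencies. Assay methods differed by source, with transient luciferase assays in mammalian cell lines being common.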

OR51L1 (Homo sapiens) = molecular target: T2, OR51L1 (Homo sapiens) (UniProt Q8NGJ5)
T2 sequence (whole entry): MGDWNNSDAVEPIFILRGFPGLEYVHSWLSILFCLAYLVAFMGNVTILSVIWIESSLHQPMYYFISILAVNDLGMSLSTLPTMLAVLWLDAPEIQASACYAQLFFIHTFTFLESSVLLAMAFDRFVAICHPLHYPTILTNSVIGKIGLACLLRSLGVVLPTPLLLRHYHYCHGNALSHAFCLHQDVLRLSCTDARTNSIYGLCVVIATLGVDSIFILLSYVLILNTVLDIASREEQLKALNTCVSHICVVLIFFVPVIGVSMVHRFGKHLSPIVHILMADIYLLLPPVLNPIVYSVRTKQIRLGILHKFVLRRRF
Outline: as §1

OR51S1 (Homo sapiens) = molecular target: T3, OR51S1 (Homo sapiens) (UniProt Q8NGJ8)
T3 sequence (whole entry): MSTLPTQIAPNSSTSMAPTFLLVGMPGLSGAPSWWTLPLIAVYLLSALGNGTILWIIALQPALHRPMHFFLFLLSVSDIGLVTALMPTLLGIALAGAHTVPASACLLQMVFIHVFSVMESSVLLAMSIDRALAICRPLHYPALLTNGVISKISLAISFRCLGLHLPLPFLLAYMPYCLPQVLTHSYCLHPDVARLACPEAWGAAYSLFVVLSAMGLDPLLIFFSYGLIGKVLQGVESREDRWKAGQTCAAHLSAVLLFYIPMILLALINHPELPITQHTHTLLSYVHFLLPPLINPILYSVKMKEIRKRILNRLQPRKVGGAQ
Outline: as §1

OR52A4P (Homo sapiens) = molecular target: T4, OR52A4P (Homo sapiens) (UniProt A6NMU1)
T4 sequence (whole entry): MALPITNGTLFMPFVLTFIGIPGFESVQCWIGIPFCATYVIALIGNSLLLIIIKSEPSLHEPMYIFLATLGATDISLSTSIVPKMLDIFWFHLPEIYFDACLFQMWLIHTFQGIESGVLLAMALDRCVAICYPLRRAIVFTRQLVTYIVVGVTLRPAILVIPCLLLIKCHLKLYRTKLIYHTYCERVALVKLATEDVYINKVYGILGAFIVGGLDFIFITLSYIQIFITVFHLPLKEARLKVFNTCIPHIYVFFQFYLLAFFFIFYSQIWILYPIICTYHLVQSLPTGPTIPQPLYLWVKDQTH
Outline: as §1

OR52A5 (Homo sapiens) = molecular target: T5, OR52A5 (Homo sapiens) (UniProt Q9H2C5)
T5 sequence (whole entry): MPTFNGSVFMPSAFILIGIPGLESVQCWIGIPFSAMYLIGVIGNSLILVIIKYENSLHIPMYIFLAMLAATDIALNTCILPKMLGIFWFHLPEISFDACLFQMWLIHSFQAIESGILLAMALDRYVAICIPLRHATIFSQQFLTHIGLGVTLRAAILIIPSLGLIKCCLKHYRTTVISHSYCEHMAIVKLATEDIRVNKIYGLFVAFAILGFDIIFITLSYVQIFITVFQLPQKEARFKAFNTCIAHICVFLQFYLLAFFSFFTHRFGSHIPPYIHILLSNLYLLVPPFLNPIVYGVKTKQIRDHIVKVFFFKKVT
Outline: as §1

OR52B4 (Homo sapiens) = molecular target: T6, OR52B4 (Homo sapiens) (UniProt Q8NGK2)
T6 sequence (whole entry): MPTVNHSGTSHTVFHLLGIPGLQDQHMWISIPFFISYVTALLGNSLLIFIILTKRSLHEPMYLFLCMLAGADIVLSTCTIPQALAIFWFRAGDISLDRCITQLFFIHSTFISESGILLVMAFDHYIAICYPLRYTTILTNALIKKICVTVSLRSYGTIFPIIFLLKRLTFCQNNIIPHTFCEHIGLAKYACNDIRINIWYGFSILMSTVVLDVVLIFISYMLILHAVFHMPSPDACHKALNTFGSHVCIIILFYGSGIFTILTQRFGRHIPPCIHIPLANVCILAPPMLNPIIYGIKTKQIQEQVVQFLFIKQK
Outline: as §1

OR52D1 (Homo sapiens) = molecular target: T7, OR52D1 (Homo sapiens) (UniProt Q9H346)
T7 sequence (whole entry): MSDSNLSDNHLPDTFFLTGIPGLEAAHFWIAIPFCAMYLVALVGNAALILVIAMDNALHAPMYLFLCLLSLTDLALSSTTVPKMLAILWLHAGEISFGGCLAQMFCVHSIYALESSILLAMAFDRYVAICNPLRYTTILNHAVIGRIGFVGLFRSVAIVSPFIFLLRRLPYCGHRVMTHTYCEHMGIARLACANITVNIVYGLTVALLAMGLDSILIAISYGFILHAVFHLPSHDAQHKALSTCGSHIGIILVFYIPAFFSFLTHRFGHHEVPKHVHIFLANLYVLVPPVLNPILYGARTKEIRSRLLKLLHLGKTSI
Outline: as §1

OR52E6 (Homo sapiens) = OR52E6 (Homo sapiens) (UniProt Q96RD3)
Outline: as §1

OR52H1 (Homo sapiens) = molecular target: T8, OR52H1 (Homo sapiens) (UniProt Q8NGJ2)
T8 sequence (whole entry): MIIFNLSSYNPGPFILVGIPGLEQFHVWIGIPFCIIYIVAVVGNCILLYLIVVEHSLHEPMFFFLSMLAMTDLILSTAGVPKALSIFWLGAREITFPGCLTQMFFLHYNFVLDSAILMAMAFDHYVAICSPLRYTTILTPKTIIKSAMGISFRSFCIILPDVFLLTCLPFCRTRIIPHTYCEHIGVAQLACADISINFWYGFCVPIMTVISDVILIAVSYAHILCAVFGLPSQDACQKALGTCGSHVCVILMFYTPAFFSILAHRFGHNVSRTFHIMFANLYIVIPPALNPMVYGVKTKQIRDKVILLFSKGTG
Outline: as §1

OR52K1 (Homo sapiens) = molecular target: T9, OR52K1 (Homo sapiens) (UniProt Q8NGK4)
T9 sequence (whole entry): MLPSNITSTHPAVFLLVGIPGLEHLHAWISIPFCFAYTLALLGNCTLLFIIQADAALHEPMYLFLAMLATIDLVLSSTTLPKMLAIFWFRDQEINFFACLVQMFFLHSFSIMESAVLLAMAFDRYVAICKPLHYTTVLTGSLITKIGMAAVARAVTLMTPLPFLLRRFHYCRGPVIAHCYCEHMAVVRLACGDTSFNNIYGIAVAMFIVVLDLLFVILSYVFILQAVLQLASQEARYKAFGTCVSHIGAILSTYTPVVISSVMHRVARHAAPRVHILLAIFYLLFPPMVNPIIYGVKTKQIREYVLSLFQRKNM
Outline: as §1

Measured: odorant receptor agonist call;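 also: active if original authors judged signal statistically different from baseline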

CCC(C)=O
inactive: OR51I2 (Homo sapiens) | OR51L1 (Homo sapiens) | OR51S1 (Homo sapiens) | OR52A4P (Homo sapiens) | OR52A5 (Homo sapiens) | OR52B4 (Homo sapiens) | OR52D1 (Homo sapiens) | OR52E6 (Homo sapiens) | OR52H1 (Homo sapiens) | OR52K1 (Homo sapiens)
